Here are results for 34 compounds from the supplement of paper PMC10735217.

For the assay, the system named is HEK293A TEAD-LUC reporter. Put plainly: TEAD-luciferase reporter activity (YAP activation), robust Z score vs plate; higher = stronger YAP/TEAD activation. The settings on record: 24 h.

This is one part of the list. Single values are uncertain here, since repeats match poorly.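 The human kidney-derived cells carry a stably integrated construct of eight TEAD-binding elements driving luciferase, read by luminescence in a drug-repurposing library screen. A compound counts as a hit when its signal is more than five robust Z scores above the plate mean.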

Take `CO[C@@H]1[C@H](N(C)C(=O)c2ccccc2)C[C@H]2O[C@]1(C)n1c3ccccc3c3c4c(c5c6ccccc6n2c5c31)C(=O)NC4`: the TEAD-luciferase reporter activity is inactive: 2.53 (compound concentration: 200 nM) and inactive: -0.743 (compound concentration: 10 uM).
For `CO[C@@H]1[C@H](N(C)C(=O)c2ccccc2)C[C@H]2O[C@]1(C)n1c3ccccc3c3c4c(c5c6ccccc6n2c5c31)C(=O)NC4` [Midostaurin], the TEAD-luciferase reporter activity (compound concentration: 2 uM) is inactive: 0.86.
With `Cc1oc(=O)oc1COC(=O)C1=C([C@H]2CCCO2)S[C@@H]2[C@@H]([C@@H](C)O)C(=O)N12` [Faropenem daloxate], the TEAD-luciferase reporter activity was inactive: 1.14 (compound concentration: 200 nM), inactive: -1.2 (compound concentration: 2 uM) and inactive: 0.118 (compound concentration: 10 uM).
For `COc1cc(O)c2c(=O)oc(CO)cc2c1` [Cytogenin] the same measures were inactive: -1.06, inactive: -0.0905 and inactive: -0.681.
The matching figures for `Cc1ccccc1CC(=O)Nc1cc(C)c(S(=O)(=O)C[N+](=O)[O-])c(C)c1`: inactive: -1.6, inactive: 0.205 and inactive: -0.291.
Regarding `C[C@]12CCC(=O)C=C1CC[C@@H]1[C@@H]2[C@@H](O)C[C@@]2(C)[C@H]1CC[C@]2(O)C(=O)COC(=O)COc1nn(Cc2ccccc2)c2ccccc12`, the TEAD-luciferase reporter activity (compound concentration: 200 nM) was inactive: -0.723, the TEAD-luciferase reporter activity (compound concentration: 2 uM) was inactive: 0.93 and the TEAD-luciferase reporter activity (compound concentration: 10 uM) was inactive: 1.96.
For `CCCCc1oc2ccccc2c1C(=O)c1ccc(OCCN(CC)CC)s1` the same measures were inactive: -0.415, inactive: 0.567 and inactive: -0.28.
For `CC(=O)Nc1ccc(C2=NNC(=O)C[C@H]2C)cc1` the same measures were inactive: 0.214, inactive: -0.916 and inactive: 0.558.
The matching figures for `COc1cc(N)c(Cl)cc1C(=O)NCC1CCN(CCCn2ccnn2)CC1`: inactive: -1.49, inactive: 1.44 and inactive: 1.05.
`CN1CCN(C2=Cc3cc(Cl)ccc3/C(=C/C#N)c3ccccc32)CC1` [rilapine]: the TEAD-luciferase reporter activity by setting is: (compound concentration: 200 nM) inactive: -1.21; (compound concentration: 2 uM) inactive: -0.0937; (compound concentration: 10 uM) inactive: -1.69.
For `COc1cccc(Oc2c(NS(=O)(=O)c3ccc(C(C)(C)C)cc3)ncnc2OCCO)c1` the same measures were inactive: -3.1, inactive: 0.0934 and inactive: 4.03.
For `CC1(C)Oc2ccc(S(=O)(=O)c3ccccc3)cc2[C@H](N2CCCC2=O)[C@H]1O` the same measures were inactive: -0.28, inactive: -0.414 and inactive: 0.273.
For `CC(C)CCC[C@@H](C)C1CCC2C3CCC4=C/C(=N/O)CC[C@]4(C)C3CC[C@@]21C` (some centres undefined) [Olesoxime], the TEAD-luciferase reporter activity (compound concentration: 2 uM) is inactive: -1.57 and the TEAD-luciferase reporter activity (compound concentration: 10 uM) is inactive: -1.73.
As to `CC1=C(/C=C/C(C)=C/C=C/C(C)=C/C(=O)OCC(=O)C(C)(C)C)C(C)(C)CCC1`, the TEAD-luciferase reporter activity was inactive: 4.82 (compound concentration: 200 nM), inactive: -0.087 (compound concentration: 2 uM) and inactive: 1.59 (compound concentration: 10 uM).
Consider `CC(C)[N+]1(C)C2CCC1CC(OC(=O)C(CO)c1ccccc1)C2` (centres undefined) [Ipratropium Bromide], for which the TEAD-luciferase reporter activity runs as follows: (compound concentration: 200 nM) inactive: -1.59; (compound concentration: 10 uM) inactive: -0.61.
For `CC(C)[N+]1(C)C2CCC1CC(OC(=O)C(CO)c1ccccc1)C2` (centres undefined) [ipratropium bromide, Premaire], for the setting “compound concentration: 2 uM”, the TEAD-luciferase reporter activity is inactive: 2.37.
On to `NC(=O)CC(=O)Nc1ccc(OCc2cccc(F)c2)cc1`, for which the TEAD-luciferase reporter activity (compound concentration: 200 nM) was inactive: 0.0884, the TEAD-luciferase reporter activity (compound concentration: 2 uM) is inactive: 0.581 and the TEAD-luciferase reporter activity (compound concentration: 10 uM) was inactive: -1.18.
The matching figures for `CC(C)S(=O)(=O)N[C@H]1Cc2ccc(-c3ccc(F)nc3)cc2C1`: inactive: -1.29, inactive: -0.149 and inactive: -0.418.
Consider `COc1ccc(N2CCN(C(=O)CC(OC(N)=O)c3ccccc3)CC2)cc1OC` (centres undefined), for which the TEAD-luciferase reporter activity is, setting by setting: (compound concentration: 200 nM) inactive: 1.93; (compound concentration: 2 uM) inactive: -0.41; (compound concentration: 10 uM) inactive: -0.616.
The matching figures for `O=c1cc(-c2nnn[nH]2)oc2c(/C=C/c3ccc(OCCCCc4ccccc4)cc3)cccc12`: inactive: -1.59, inactive: -0.27 and inactive: 1.61.
For the compound `CCS(=O)(=O)C(F)(F)[C@](O)(Cn1cncn1)c1ccc(F)cc1F`, the TEAD-luciferase reporter activity is, setting by setting: (compound concentration: 200 nM) inactive: 0.922; (compound concentration: 10 uM) inactive: 0.59.
For the compound `CNS(=O)(=O)c1ccc(Oc2ccc(SC)cc2)c(CN(C)C)c1`, the TEAD-luciferase reporter activity (compound concentration: 200 nM) was inactive: -0.00577, the TEAD-luciferase reporter activity (compound concentration: 2 uM) was inactive: -1.39 and the TEAD-luciferase reporter activity (compound concentration: 10 uM) was inactive: 0.701.
For `N=C(N)NCCC[C@@H](N)C(=O)N[C@@H](CCCNC(=N)N)C(=O)N1CCC[C@H]1C(=O)N1C[C@H](O)C[C@H]1C(=O)NCC(=O)N[C@@H](Cc1ccccc1)C(=O)N[C@@H](CO)C(=O)N[C@H](Cc1ccccc1)C(=O)N[C@@H](Cc1ccccc1)C(=O)N[C@@H](CCCNC(=N)N)C(=O)O` the same measures were inactive: -1.21, inactive: -0.297 and inactive: 3.06.
For `Cc1cc(NC(=O)C2C(=O)c3ccccc3S(=O)(=O)N2C)no1` (centres undefined) [isoxicam] the same measures were inactive: -0.213, inactive: 0.564 and inactive: 0.975.
As for `CSc1ccc(CN2CCCC(Nc3ccc4[nH]ncc4c3)C2)cc1` (centres undefined), the TEAD-luciferase reporter activity runs as follows: (compound concentration: 200 nM) inactive: 0.698; (compound concentration: 2 uM) inactive: 1.19; (compound concentration: 10 uM) inactive: 1.59.
With `CN1C2=CC(=O)/C(=N/NC(N)=O)C=C2CC1S(=O)(=O)O` (centres undefined) [Carbazochrome sodium sulfonate], the TEAD-luciferase reporter activity by setting is: (compound concentration: 200 nM) inactive: 2.76; (compound concentration: 2 uM) inactive: 0.385; (compound concentration: 10 uM) inactive: 1.27.
For `OCC1OC(n2cnc3c(NCCc4ccccc4)ncnc32)C(O)C1O` (centres undefined) the same measures were inactive: 0.0453, inactive: 0.683 and inactive: -0.606.
For `Cc1ccc(=O)n(-c2ccc(O)cc2)c1`, the TEAD-luciferase reporter activity (compound concentration: 200 nM) is inactive: -0.635, the TEAD-luciferase reporter activity (compound concentration: 2 uM) was inactive: -1.89 and the TEAD-luciferase reporter activity (compound concentration: 10 uM) was inactive: 0.3.
The matching figures for `CCCCCc1cccc(CC(=O)[O-])c1`: inactive: -1.28, inactive: -0.408 and inactive: 0.171.
For `O=C([O-])CN(CCN(CC(=O)[O-])CC(=O)[O-])CC(=O)[O-]` [Edetate calcium disodium] the same measures were inactive: 3.15, inactive: 0.394 and inactive: 1.66.
On to `CCOC(=O)OC(C)OC(=O)CNC(=O)[C@@H](CSSC[C@@H](N)CCSC)Cc1ccccc1` (some centres undefined), for which the TEAD-luciferase reporter activity is, setting by setting: (compound concentration: 200 nM) inactive: -0.512; (compound concentration: 2 uM) inactive: 0.225; (compound concentration: 10 uM) inactive: -1.24.
The matching figures for `CCCCCCCCC1OC(=O)c2ccccc21` (centres undefined): inactive: 0.797, inactive: -1.42 and inactive: -1.16.
On to `O=C(O)Cn1c(=O)n(Cc2ccc(Br)cc2F)c(=O)c2ccc(Cl)cc21` [Zenarestat], for which the TEAD-luciferase reporter activity (compound concentration: 200 nM) is inactive: -0.949, the TEAD-luciferase reporter activity (compound concentration: 2 uM) was inactive: 0.182 and the TEAD-luciferase reporter activity (compound concentration: 10 uM) was inactive: 2.11.
For `CNC(=O)[C@H]1O[C@@H](n2cnc3c(NCc4cccc(I)c4)ncnc32)[C@H](O)[C@@H]1O`, the TEAD-luciferase reporter activity is, setting by setting: (compound concentration: 200 nM) inactive: -1.47; (compound concentration: 2 uM) inactive: 0.409; (compound concentration: 10 uM) inactive: -0.906.
